Cell viability data for 54 compounds are collected here from the supplement of paper PMC3682954.

The test system of this experiment is RAW 264.7. Put plainly: cell viability (MTT) relative to vehicle control; higher = more viable cells. The settings on record: stimulus: HMGB1 5 ug/ml, 18 h.
Setting [1] is: compound concentration: 1 ug/ml.

Where “and” joins values, the source holds several entries; their conditions need not be identical. Identical values can stand only once. Counter-ions that a name gives are not always drawn. ± gives the standard deviation of the averaged measurements. The list shows a part of the results. Single values are uncertain, as repeats are few or missing.

In the case of `NC(=O)C(c1ccccc1)(c1ccccc1)[C@@H]1CCN(CCc2ccc3c(c2)CCO3)C1`, the cell viability (compound concentration: 3 uM) amounted to 117%.

Take `CCc1cn([C@H]2C[C@H](O)[C@@H](CO)O2)c(=O)[nH]c1=O` [5-Ethyl-2'-deoxyuridine ; Edoxudine]: the cell viability under setting [1] worked out at 96.2%.

`CCc1cn([C@H]2C[C@H](O)[C@@H](CO)O2)c(=O)[nH]c1=O`: the cell viability (compound concentration: 3 uM) was 112%.

As to `CC(C)NC[C@@H](O)COc1cccc2ccccc12` [(R)-Propranolol hydrochloride], the cell viability (compound concentration: 3 uM) amounted to 96.4%.

Take `CC(C)NC[C@@H](O)COc1cccc2ccccc12`: for the setting “compound concentration: 3 uM”, the cell viability worked out at 100%.

Consider `Nc1ncnc2c1c(-c1ccc(Oc3ccccc3)cc1)cn2C1CCCC1`, for which the cell viability (compound concentration: 3 uM) was 100%.

For `CNCC(O)c1ccc(OC(=O)C(C)(C)C)c(OC(=O)C(C)(C)C)c1` (stereo unspecified) [Dipivefrin hydrochloride], the cell viability (compound concentration: 3 uM) was 111%.

With `CC(C)NCC(O)c1ccc(O)c(O)c1` (single isomer, unassigned; (+)) [(+)-Isoproterenol (+)-bitartrate salt], the cell viability (compound concentration: 3 uM) was found to be 109%.

For the compound `CCN(CC)CCc1nc(-c2ccccc2)no1`, the cell viability (compound concentration: 3 uM) was 97.7%.

With `CCN(CC)CCc1nc(-c2ccccc2)no1` [Oxalamine citrate salt], for the setting “compound concentration: 3 uM”, the cell viability was 108%.

`CC(NCCC(c1ccccc1)c1ccccc1)c1ccccc1` (stereo unspecified): under “compound concentration: 3 uM”, the cell viability was found to be 108%.

As for `CC(NCCC(c1ccccc1)c1ccccc1)c1ccccc1` (stereo unspecified) [Fendiline hydrochloride], the cell viability (compound concentration: 3 uM) was 110%.

Turning to `O=c1[nH]c(=O)n(C2CCCO2)cc1F` (stereo unspecified) [Ftorafur], the cell viability (compound concentration: 3 uM) came out at 99.9%.

`O=c1[nH]c(=O)n(C2CCCO2)cc1F` (stereo unspecified): the cell viability (compound concentration: 3 uM) worked out at 87.8%.

For `CN(C)[C@@H]1C(O)=C(C(=O)NCN2CCCC2)C(=O)[C@@]2(O)C(O)=C3C(=O)c4c(O)cccc4[C@@](C)(O)[C@H]3C[C@@H]12`, the cell viability (compound concentration: 3 uM) worked out at 101 ± 11%.

For `CN(C)[C@@H]1C(O)=C(C(=O)NCN2CCCC2)C(=O)[C@@]2(O)C(O)=C3C(=O)c4c(O)cccc4[C@@](C)(O)[C@H]3C[C@@H]12` [Rolitetracycline], the cell viability under setting [1] is 91.3% and the cell viability (compound concentration: 3 uM) was determined as 82.9%.

As to `Nc1nc2c(nc(Br)n2[C@@H]2OC(CO)C(O)C2O)c(=O)[nH]1` (stereo partly specified), under setting [1], the cell viability amounted to 96.8%.

For `Cc1c(N(C)CS(=O)(=O)O)c(=O)n(-c2ccccc2)n1C` [Dipyrone], the cell viability (compound concentration: 3 uM) stood at 106%.

As to `Cc1c(N(C)CS(=O)(=O)O)c(=O)n(-c2ccccc2)n1C`, the cell viability (compound concentration: 3 uM) turned out to be 99.4%.

Turning to `CCC(C)N(C)C(=O)c1cc2ccccc2c(-c2ccccc2Cl)n1` (stereo unspecified), the cell viability (compound concentration: 3 uM) was 90.1%.

Turning to `NC(=O)[C@@H]1CCCN1` [L-Prolinamide], under setting [1], the cell viability was 97.2%.

On to `Nc1nc2ccc(Cl)cc2c2nc(-c3ccco3)nn12`, for which the cell viability (compound concentration: 3 uM) is 107% and 94.1%.

Consider `CC[C@H](C)C(=O)O[C@H]1CCC=C2C=C[C@H](C)[C@H](CC[C@@H]3C[C@@H](O)CC(=O)O3)[C@H]21` [Mevastatin], for which, where the note is “compound concentration: 3 uM”, the cell viability stood at 113 ± 6.4%.

With `CC[C@H](C)C(=O)O[C@H]1CCC=C2C=C[C@H](C)[C@H](CC[C@@H]3C[C@@H](O)CC(=O)O3)[C@H]21`, the cell viability (compound concentration: 3 uM) is 114%.

Consider `CC[C@H](C)C(=O)O[C@H]1CCC=C2C=C[C@H](C)[C@H](CC[C@@H]3C[C@@H](O)CC(=O)O3)[C@H]21` [mevastatin], for which the cell viability (compound concentration: 3 uM) was 111%.

Take `Nc1cc(C(Cl)=C(Cl)Cl)c(S(N)(=O)=O)cc1S(N)(=O)=O`: where the note is “compound concentration: 3 uM”, the cell viability amounted to 106 ± 1.1%.

Turning to `Nc1cc(C(Cl)=C(Cl)Cl)c(S(N)(=O)=O)cc1S(N)(=O)=O` [Clorsulon], for the setting “compound concentration: 3 uM”, the cell viability came to 85.6%.

Turning to `COc1ccc2[nH]cc(CC(N)C(=O)O)c2c1` (racemic) [DL-5-Methoxytryptophan], the cell viability under setting [1] was found to be 84%.

As for `C1CNCCN1`, the cell viability (compound concentration: 3 uM) was 97.3%.

Take `COc1c2occc2c(OC)c2c(=O)cc(C)oc12`: the cell viability (compound concentration: 3 uM) was found to be 106%.

As to `COc1c2occc2c(OC)c2c(=O)cc(C)oc12` [Khellin], the cell viability came out at 97.2% under setting [1] and 95.3% (compound concentration: 3 uM).

`NCC(O)CC(=O)O` (stereo unspecified): the cell viability (compound concentration: 3 uM) was 106%.

Regarding `O=C(/C=C/c1ccc(O)c(O)c1)OCCc1ccccc1` [Caffeic acid phenethyl ester], where the note is “compound concentration: 3 uM”, the cell viability turned out to be 45.8%.

For the compound `NNc1nncc2ccccc12`, where the note is “compound concentration: 3 uM”, the cell viability came out at 103%.

As to `NNc1nncc2ccccc12` [Hydralazine hydrochloride], the cell viability (compound concentration: 3 uM) stood at 99.5 ± 9.2%.

In the case of `CC(=O)OCC(CCn1cnc2cnc(N)nc21)COC(C)=O`, under “compound concentration: 3 uM”, the cell viability worked out at 101.4 ± 0.3%.

With `CC(=O)OCC(CCn1cnc2cnc(N)nc21)COC(C)=O` [Famciclovir], the cell viability (compound concentration: 3 uM) is 97.8 ± 4%.

With `Nc1ncnc2c1c(I)cn2[C@@H]1C[C@H](N)[C@@H](O)[C@H]1O`, the cell viability (compound concentration: 3 uM) was 111%.

As to `CN1CCN(c2c(F)cc3c(=O)c(C(=O)O)cn(CCF)c3c2F)CC1` [Fleroxacin], under “compound concentration: 3 uM”, the cell viability was 101 ± 13%.

`C[C@H](CCC(=O)O)[C@H]1CC[C@H]2[C@@H]3[C@H](O)C[C@@H]4C[C@H](O)CC[C@]4(C)[C@H]3CC[C@]12C`: the cell viability (compound concentration: 3 uM) is 99.5%.

For the compound `C[C@H](CCC(=O)O)[C@H]1CC[C@H]2[C@@H]3[C@H](O)C[C@@H]4C[C@H](O)CC[C@]4(C)[C@H]3CC[C@]12C` [Chenodiol], where the note is “compound concentration: 3 uM”, the cell viability was 106%.

As to `O=C1c2ccccc2C(=O)c2c1ccc(O)c2O` [Alizarin], the cell viability under setting [1] amounted to 107%.

Consider `Cc1nc(=O)c2cc(CN(C)c3ccc(C(=O)N[C@@H](CCC(=O)O)C(=O)O)s3)ccc2[nH]1`, for which, where the note is “compound concentration: 3 uM”, the cell viability turned out to be 97.9%.

On to `CN1CCN(CCCN2c3ccccc3Sc3ccc(Cl)cc32)CC1`, for which, for the setting “compound concentration: 3 uM”, the cell viability is 97.3% and 92.4%.

As for `CN1CCN(CCCN2c3ccccc3Sc3ccc(Cl)cc32)CC1` [Prochlorperazine dimaleate], for the setting “compound concentration: 3 uM”, the cell viability amounted to 106 ± 14%.

For `CC(=O)[C@]1(O)Cc2c(O)c3c(c(O)c2[C@@H](O[C@H]2C[C@H](N)[C@H](O)[C@H](C)O2)C1)C(=O)c1ccccc1C3=O` [Idarubicin], the cell viability (compound concentration: 3 uM) is 4.09 ± 0.6%.

Turning to `CC(=O)[C@]1(O)Cc2c(O)c3c(c(O)c2[C@@H](O[C@H]2C[C@H](N)[C@H](O)[C@H](C)O2)C1)C(=O)c1ccccc1C3=O`, the cell viability (compound concentration: 3 uM) is 2.08%.

As to `Cn1ccc2cc(NC(=O)Nc3cccnc3)ccc21`, the cell viability (compound concentration: 3 uM) is 102%.

For the compound `O=c1oc2ccccc2c(O)c1Cc1c(O)c2ccccc2oc1=O` [Dicumarol], under “compound concentration: 3 uM”, the cell viability came out at 133%.

Consider `O=c1oc2ccccc2c(O)c1Cc1c(O)c2ccccc2oc1=O`, for which the cell viability (compound concentration: 3 uM) came out at 96.9%.

`O=C(O)COC(=O)Cc1ccccc1Nc1c(Cl)cccc1Cl` [Aceclofenac]: under “compound concentration: 3 uM”, the cell viability worked out at 95.5 ± 4.3%.

For the compound `C[C@@H]1C[C@H]2[C@@H]3CCC4=CC(=O)C=C[C@]4(C)[C@@]3(F)[C@@H](O)C[C@]2(C)[C@@]1(O)C(=O)CO`, the cell viability (compound concentration: 3 uM) came out at 106%.

`C[C@@H]1C[C@H]2[C@@H]3CCC4=CC(=O)C=C[C@]4(C)[C@@]3(F)[C@@H](O)C[C@]2(C)[C@@]1(O)C(=O)CO` [Dexamethasone]: the cell viability (compound concentration: 3 uM) amounted to 113%.

Take `OC1(c2ccc(Cl)c(C(F)(F)F)c2)CCN(CCCC(c2ccc(F)cc2)c2ccc(F)cc2)CC1`: the cell viability (compound concentration: 3 uM) was 91.9%.

Usually cell viability stands for a read-out of living cells in per cent, often relative to untreated cells.
